The other results are listed elsewhere or left out.
Columns and labels:
Assay in all cases: log2 fold change, soluble protein after heating vs DMSO (PISA); higher = thermal stabilisation; K562 cells, 10 uM, 30 min; active = over 0.2 and 3.5 SD of the protein, either way, in both replicates (recomputed)
[1] = compound: CS(=O)(=O)c1ccc(-c2cnc(N)c(C(=O)Nc3ccccc3)n2)cc1
Procedure, shortened: (§1)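 Values are thermal stability changes relative to control samples and are taken from duplicates. They are stated as log2 fold changes. Before quantification by TMTpro 16plex LC-MS/MS with equalised channel sums, K562 cells at 2×10^6 cells/mL were treated with 10 μM compound for 30 min, heated in aliquots for 3 min across 48°C-58°C, pooled, extracted in PBS with 0.5% NP-40 at 4°C, and centrifuged at 21,000xg for 90 min to give the soluble supernatant.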

Amino acid sequences for entries named in this document (tags omitted). A change or cut given only in a name is not applied to a line headed by its entry.
UniProt O75400: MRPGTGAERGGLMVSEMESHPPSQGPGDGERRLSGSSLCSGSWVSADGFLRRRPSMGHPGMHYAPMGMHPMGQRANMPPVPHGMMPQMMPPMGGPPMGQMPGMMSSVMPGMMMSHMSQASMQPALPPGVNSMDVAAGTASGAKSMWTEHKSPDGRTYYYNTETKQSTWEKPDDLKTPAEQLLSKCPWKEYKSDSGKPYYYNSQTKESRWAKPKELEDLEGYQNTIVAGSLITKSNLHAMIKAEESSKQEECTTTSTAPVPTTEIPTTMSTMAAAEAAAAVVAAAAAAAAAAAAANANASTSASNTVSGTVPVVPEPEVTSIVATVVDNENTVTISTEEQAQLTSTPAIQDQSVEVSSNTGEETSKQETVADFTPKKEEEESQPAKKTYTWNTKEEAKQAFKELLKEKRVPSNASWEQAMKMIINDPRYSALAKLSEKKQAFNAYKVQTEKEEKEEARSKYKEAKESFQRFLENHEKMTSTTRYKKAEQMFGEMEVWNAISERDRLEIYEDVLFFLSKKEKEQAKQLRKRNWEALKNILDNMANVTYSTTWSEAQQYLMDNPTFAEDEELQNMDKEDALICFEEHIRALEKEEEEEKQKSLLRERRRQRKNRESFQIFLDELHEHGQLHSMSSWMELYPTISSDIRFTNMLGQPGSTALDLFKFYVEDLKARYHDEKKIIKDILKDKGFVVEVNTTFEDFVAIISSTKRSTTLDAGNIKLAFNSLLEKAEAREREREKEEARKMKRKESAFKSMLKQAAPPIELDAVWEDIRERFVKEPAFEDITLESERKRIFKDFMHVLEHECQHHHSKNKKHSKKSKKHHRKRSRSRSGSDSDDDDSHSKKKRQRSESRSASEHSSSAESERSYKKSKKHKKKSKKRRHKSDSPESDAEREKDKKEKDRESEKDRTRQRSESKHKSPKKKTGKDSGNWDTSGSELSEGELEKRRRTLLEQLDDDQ
UniProt Q9BSG0: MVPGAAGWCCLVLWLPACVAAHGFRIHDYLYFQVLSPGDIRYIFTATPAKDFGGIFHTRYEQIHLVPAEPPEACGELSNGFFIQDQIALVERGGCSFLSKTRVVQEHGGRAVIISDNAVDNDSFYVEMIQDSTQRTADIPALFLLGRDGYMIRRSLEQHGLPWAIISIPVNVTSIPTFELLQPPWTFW
UniProt Q9UMR5: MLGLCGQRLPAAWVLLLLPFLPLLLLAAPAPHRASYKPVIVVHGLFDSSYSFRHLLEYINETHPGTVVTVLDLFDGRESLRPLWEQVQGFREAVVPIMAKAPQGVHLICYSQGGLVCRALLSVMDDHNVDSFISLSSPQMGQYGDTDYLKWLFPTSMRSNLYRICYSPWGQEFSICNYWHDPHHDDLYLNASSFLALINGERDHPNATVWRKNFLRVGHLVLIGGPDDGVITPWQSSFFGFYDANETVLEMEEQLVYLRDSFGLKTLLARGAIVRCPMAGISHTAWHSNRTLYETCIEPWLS
UniProt P07478, whole entry, looked up: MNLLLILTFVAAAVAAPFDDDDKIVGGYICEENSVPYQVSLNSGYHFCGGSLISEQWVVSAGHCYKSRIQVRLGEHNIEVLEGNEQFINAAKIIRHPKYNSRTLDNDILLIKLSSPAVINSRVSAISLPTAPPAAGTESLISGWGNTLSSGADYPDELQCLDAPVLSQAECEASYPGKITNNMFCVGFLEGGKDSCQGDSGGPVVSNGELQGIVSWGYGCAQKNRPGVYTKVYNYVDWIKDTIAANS
UniProt O14974: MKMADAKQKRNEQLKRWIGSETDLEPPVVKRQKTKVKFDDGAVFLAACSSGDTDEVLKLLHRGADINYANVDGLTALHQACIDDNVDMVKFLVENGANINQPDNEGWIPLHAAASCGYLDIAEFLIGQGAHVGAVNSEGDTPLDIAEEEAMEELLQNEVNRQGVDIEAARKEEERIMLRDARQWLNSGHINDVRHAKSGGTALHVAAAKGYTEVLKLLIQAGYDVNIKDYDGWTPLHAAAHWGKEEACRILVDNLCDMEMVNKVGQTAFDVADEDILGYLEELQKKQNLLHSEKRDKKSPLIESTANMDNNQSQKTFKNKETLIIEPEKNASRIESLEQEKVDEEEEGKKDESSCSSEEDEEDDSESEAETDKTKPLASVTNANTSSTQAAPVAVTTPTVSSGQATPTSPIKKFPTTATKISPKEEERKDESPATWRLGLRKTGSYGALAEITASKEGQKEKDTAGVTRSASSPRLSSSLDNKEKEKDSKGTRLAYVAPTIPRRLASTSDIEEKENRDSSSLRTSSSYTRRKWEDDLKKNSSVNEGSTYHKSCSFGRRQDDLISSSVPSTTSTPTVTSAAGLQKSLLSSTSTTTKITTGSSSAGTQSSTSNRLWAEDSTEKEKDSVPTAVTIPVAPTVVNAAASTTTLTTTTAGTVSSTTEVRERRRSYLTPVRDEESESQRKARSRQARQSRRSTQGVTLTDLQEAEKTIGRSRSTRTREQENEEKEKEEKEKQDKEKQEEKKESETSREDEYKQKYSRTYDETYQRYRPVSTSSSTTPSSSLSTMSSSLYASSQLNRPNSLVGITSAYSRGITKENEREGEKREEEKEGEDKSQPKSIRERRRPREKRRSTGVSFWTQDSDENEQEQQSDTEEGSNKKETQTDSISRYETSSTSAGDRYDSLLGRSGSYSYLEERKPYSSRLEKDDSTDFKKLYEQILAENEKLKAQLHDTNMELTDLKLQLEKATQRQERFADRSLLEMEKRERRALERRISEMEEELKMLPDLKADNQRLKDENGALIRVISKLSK
UniProt Q5MIZ7: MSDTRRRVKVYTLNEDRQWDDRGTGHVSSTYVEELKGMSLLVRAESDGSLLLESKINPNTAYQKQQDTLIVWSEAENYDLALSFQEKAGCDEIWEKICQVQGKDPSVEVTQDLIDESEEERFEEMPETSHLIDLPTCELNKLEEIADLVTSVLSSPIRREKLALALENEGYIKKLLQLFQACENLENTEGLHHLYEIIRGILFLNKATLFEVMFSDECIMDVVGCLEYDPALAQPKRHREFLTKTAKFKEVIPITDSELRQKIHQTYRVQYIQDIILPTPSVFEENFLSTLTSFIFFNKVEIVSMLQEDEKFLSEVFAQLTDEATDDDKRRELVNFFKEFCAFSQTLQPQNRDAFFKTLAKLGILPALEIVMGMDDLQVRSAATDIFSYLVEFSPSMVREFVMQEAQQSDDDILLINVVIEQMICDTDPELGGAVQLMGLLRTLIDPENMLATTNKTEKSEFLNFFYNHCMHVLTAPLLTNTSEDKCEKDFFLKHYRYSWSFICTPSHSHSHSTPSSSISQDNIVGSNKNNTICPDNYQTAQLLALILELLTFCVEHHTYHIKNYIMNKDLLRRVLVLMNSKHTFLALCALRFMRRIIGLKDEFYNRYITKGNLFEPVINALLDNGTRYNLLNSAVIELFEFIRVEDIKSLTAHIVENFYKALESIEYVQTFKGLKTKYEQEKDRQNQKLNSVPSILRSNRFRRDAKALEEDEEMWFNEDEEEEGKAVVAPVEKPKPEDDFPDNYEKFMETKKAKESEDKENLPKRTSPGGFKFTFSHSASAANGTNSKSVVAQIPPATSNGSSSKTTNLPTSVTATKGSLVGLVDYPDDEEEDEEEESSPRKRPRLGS
UniProt P05771, whole entry, looked up: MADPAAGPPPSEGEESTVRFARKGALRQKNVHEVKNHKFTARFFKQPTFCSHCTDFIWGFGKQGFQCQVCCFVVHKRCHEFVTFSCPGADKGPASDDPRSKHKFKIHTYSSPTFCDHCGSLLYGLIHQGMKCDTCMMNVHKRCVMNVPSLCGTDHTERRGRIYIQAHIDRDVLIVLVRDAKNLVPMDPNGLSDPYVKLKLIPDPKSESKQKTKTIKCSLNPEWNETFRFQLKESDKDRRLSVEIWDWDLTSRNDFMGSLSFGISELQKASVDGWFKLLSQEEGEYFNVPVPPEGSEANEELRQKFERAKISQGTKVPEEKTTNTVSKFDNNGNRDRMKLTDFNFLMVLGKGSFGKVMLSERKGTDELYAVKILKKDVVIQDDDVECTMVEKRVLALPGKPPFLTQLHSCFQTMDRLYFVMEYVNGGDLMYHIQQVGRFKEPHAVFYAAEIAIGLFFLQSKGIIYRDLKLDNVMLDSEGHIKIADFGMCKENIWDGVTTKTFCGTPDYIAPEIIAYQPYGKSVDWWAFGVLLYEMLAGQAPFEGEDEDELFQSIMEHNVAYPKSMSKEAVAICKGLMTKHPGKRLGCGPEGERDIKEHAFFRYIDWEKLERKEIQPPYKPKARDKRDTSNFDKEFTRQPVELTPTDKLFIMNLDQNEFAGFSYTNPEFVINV
UniProt O43741: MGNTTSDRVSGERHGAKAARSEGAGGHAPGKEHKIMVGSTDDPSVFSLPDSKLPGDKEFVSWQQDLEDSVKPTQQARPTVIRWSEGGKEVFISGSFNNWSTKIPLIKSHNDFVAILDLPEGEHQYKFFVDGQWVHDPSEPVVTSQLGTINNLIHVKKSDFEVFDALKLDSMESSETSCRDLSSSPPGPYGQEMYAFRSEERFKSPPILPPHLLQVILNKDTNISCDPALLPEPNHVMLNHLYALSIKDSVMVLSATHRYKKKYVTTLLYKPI
UniProt Q96A00: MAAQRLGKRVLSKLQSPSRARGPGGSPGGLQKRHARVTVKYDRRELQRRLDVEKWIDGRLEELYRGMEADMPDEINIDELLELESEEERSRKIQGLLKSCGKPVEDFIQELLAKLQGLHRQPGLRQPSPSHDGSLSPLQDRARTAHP

[2] = compound: C[C@@H](Oc1cc(-c2cnn(C3CCNCC3)c2)cnc1N)c1c(Cl)ccc(F)c1Cl [crizotinib]
Procedure, shortened: as §1

[3] = compound: C[C@@H]1COCCN1C2=NC(=NC(=C2)C3(CC3)S(=O)(=O)C)C4=C5C=CNC5=CC=C4
Procedure, shortened: as §1

[4] = compound: C[C@H](C1=CC=C(C=C1)C(=O)NC2=C3C=CNC3=NC=C2)N
Procedure, shortened: as §1

[5] = compound: Cc1cc(Nc2cc(CN3CCOCC3)c3nc(C)c(Cc4ccc(Cl)cc4F)n3n2)n[nH]1 [gandotinib]
Procedure, shortened: as §1

[6] = compound: Cc1cc(SCc2sc(-c3ccc(C(F)(F)F)cc3)nc2C)ccc1OCC(=O)O
Procedure, shortened: as §1

[7] = compound: Cc1ccc(-n2nc(C(C)(C)C)cc2NC(=O)Nc2ccc(OCCN3CCOCC3)c3ccccc23)cc1 [doramapimod]
Procedure, shortened: as §1

[8] = compound: Cc1ccc(C(=O)N(CCCN)[C@@H](c2nc3cc(Cl)ccc3c(=O)n2Cc2ccccc2)C(C)C)cc1 [ispinesib]
Procedure, shortened: as §1

[9] = compound: Cc1ccc(NC(=O)c2ccc(CN3CC[C@H](N(C)C)C3)c(C(F)(F)F)c2)cc1Nc1nccc(-c2cncnc2)n1 [bafetinib]
Procedure, shortened: as §1

[10] = compound: Cc1cccc(CC(=O)N2CCc3c2ccc(-c2cn(C)c4ncnc(N)c24)c3F)n1
Procedure, shortened: as §1

[11] = compound: Cc1cn(-c2cc(NC(=O)c3ccc(C)c(Nc4nccc(-c5cccnc5)n4)c3)cc(C(F)(F)F)c2)cn1 [nilotinib]
Procedure, shortened: as §1

[12] = compound: Cc1nc(Nc2n[nH]c3c2CN(C(=O)N[C@H](CN(C)C)c2ccccc2)C3(C)C)c2sccc2n1
Procedure, shortened: as §1

[13] = compound: Cc1nc(Nc2ncc(C(=O)Nc3c(C)cccc3Cl)s2)cc(N2CCN(CCO)CC2)n1 [dasatinib]
Procedure, shortened: as §1

[14] = compound: Cc1ncc(-c2ccnc(Nc3ccc(S(C)(=O)=O)cc3)n2)n1C(C)C
Procedure, shortened: as §1

[15] = compound: Cn1cc(-c2ccc3c(c2)CCN3C(=O)Cc2cccc(C(F)(F)F)c2)c2c(N)ncnc21
Procedure, shortened: as §1

[16] = compound: Cn1cc(-c2ccc3nnc(C(F)(F)c4ccc5ncccc5c4)n3n2)cn1
Procedure, shortened: as §1

[17] = compound: Cn1cncc1[C@@](N)(c1ccc(Cl)cc1)c1ccc2c(c1)c(-c1cccc(Cl)c1)cc(=O)n2C [tipifarnib]
Procedure, shortened: as §1

[18] = compound: FC(F)(F)c1ccc(/C=C/c2nc(COc3ccc(CCCCn4ccnn4)cc3)co2)cc1 [mubritinib]
Procedure, shortened: as §1

[19] = compound: C[C@H](Nc1ncnc2nc[nH]c12)c1cc2cccc(Cl)c2c(=O)n1-c1ccccc1 [duvelisib]
Procedure, shortened: as §1

[20] = compound: Cc1cc(Nc2cc(N3CCN(C)CC3)nc(Sc3ccc(NC(=O)C4CC4)cc3)n2)n[nH]1 [tozasertib]
Procedure, shortened: as §1

Measured: log2 fold change

PRPF40A (UniProt O75400)
inactive: [1] -0.023 | [2] 0.071 | [3] 0.105 | [4] -0.061 | [5] -0.04 | [6] 0.104 | [7] 0.021 | [8] -0.034 | [9] -0.014 | [10] 0.005 | [11] -0.085 | [12] -0.058 | [13] -0.05 | [14] -0.135 | [15] 0.082 | [16] 0.048 | [17] 0.045 | [18] -0.013

PRADC1 (UniProt Q9BSG0)
inactive: [1] 0.052 | [2] -0.024 | [3] -0.055 | [4] -0.216 | [19] 0.031 | [5] -0.095 | [20] 0.066 | [6] -0.076 | [7] 0.105 | [10] -0.074 | [13] -0.207 | [15] 0.051 | [18] 0.004

PPT2 isoform 3 (UniProt Q9UMR5)
inactive: [1] 0.074 | [2] -0.182 | [3] -0.021 | [4] -0.148 | [5] 0.001 | [6] -0.069 | [7] 0.006 | [8] -0.041 | [10] -0.013 | [11] 0.031 | [12] 0.013 | [13] 0.055 | [14] -0.045 | [15] 0.07 | [16] 0.037 | [17] 0.013 | [18] 0.034
active: [9] -0.301

PRSS2 (UniProt P07478)
inactive: [1] 0.085 | [2] -0.029 | [3] -0.162 | [4] 0.007 | [19] 0.057 | [20] -0.09 | [6] -0.035 | [7] 0.022 | [9] -0.001 | [11] -0.004 | [12] -0.195 | [13] 0.208 | [14] -0.024 | [15] -0.093 | [17] 0.107

PPP1R12A (UniProt O14974)
inactive: [1] -0.054 | [2] -0.351 | [3] -0.039 | [5] 0.021 | [6] 0.029 | [7] -0.054 | [8] -0.1 | [9] -0.041 | [10] -0.02 | [11] -0.027 | [12] -0.302 | [13] -0.108 | [14] -0.118 | [15] -0.002 | [16] 0.02 | [17] -0.023 | [18] 0.07
active: [4] -0.885

PPP4R3B (UniProt Q5MIZ7)
inactive: [1] -0.003 | [2] 0.124 | [3] 0.064 | [4] -0.035 | [5] -0.075 | [6] 0.056 | [7] 0 | [8] 0.056 | [9] -0.054 | [10] 0.116 | [11] -0.032 | [12] -0.006 | [13] -0.03 | [14] -0.013 | [15] 0.037 | [16] 0.054 | [17] -0.041 | [18] 0.006

PRKCB isoform 2 (UniProt P05771)
inactive: [1] 0.019 | [2] -0.039 | [3] 0.039 | [4] -0.063 | [5] -0.079 | [6] 0.032 | [7] -0.01 | [8] -0.017 | [9] -0.037 | [10] 0.025 | [11] -0.022 | [13] -0.054 | [14] 0.034 | [15] 0.04 | [16] 0 | [17] -0.051 | [18] 0.054
active: [12] -0.3

PRKAB2 (UniProt O43741)
active: [5] -0.484
inactive: [1] -0.08 | [2] -0.245 | [3] 0.021 | [4] -0.231 | [6] 0.051 | [7] -0.041 | [8] 0.143 | [9] 0.027 | [10] -0.01 | [11] -0.022 | [12] -0.184 | [13] -0.16 | [14] 0.082 | [15] 0.142 | [16] -0.034 | [17] -0.046 | [18] -0.02

PPP1R14A (UniProt Q96A00)
inactive: [1] 0.078 | [2] 0.011 | [3] 0.005 | [4] 0.003 | [5] 0.106 | [6] -0.049 | [7] -0.086 | [8] 0.319 | [9] -0.058 | [10] 0.026 | [11] -0.01 | [12] 0.013 | [13] 0.019 | [14] 0.026 | [15] 0.076 | [16] -0.055 | [17] 0 | [18] 0.033

Source: the supplement of paper PMC10849652
